No constants are given. Whether binding was seen depends on the method and setting. Some results given as binding are weak or reduced against the parent protein; the word gives no strength.
Biological target: CTLA4 (UniProt P16410)
Test: ELISA titration, OD405

Protein sequences, listed by entry. Tags and fused reporters are not part of them. Residues count along the entry.
UniProt P16410, residues 37-162: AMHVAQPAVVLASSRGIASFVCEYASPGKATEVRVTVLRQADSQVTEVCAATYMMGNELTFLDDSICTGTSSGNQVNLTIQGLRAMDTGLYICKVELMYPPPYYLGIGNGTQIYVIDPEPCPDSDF

binding: binds
B1: 319-8-2 (antibody, V domains shown)
VH: QVQLVESGGDVVQPGGSLRLSCAASGVAFSDSGMHWVRQAPGKGLEWLAVIWYDGSKKHYAEAVKGRFTISRDNSKNMLYLQMNSLRVDDTAIYYCAKAHSQDDYWGQGTLVTVSS
VL: EIVLTQSPATLSLSPGERATLSCRATPSIDSYLAWYQQKSGQSPRLIIHDASIRATGIPDRFSGSGSGTDFTLTISSLEPEDFAVYYCQQRDSWPLAFGGGTKVEFK

Reference: patent US20200181265A1
